Data: PubChem BioAssay AID588497 (NMMLSC, 2011)
About 780 (0.22%) of roughly 360,000 compounds were called active. The inconclusive results got no clear call from the source; some entries with a clear call stand among them for comparison. No stated cut-off is given here; in the data, active means inhibition above about 35% (passing the limit was not always enough); inconclusive means no clear call, values can overlap the other calls.

The compounds below were run on Botulinum neurotoxin type F light chain protease (Clostridium botulinum) (assay: BoNT/F light chain protease inhibitors, primary screen, biochemical, flow cytometry, MLPCN library (AID 588497; further: plate controls were buffer without enzyme for full effect and enzyme alone for no effect)). Settings: Multiplex microsphere protease cleavage assay, at 10 µM, active compounds read high.

SMILES	inhibition
COC(=O)C(O)(c1ccc(NC(=O)c2cccs2)c(C)c1)C(F)(F)F (stereo not drawn)	inconclusive: -20%
CS(=O)(=O)N1CCC(C(=O)Nc2cccc(Br)c2)CC1	inconclusive: 37.8%
O=C(NCCCn1ccnc1)/C(=C/c1cccnc1)NC(=O)c1ccco1	inconclusive: -0.8%
O=C(CN1CCOCC1)Nc1cccc([N+](=O)[O-])c1	inconclusive: -26.9%
Cc1cccc(OCCSc2nc3ccccc3n2CCC(=O)O)c1	inconclusive: -10.9%
COc1ccc(NC(=O)N2CCN(S(=O)(=O)c3ccc(F)cc3)CC2)c(OC)c1	inactive: 1.6%
O=C(NNC(=S)NC(=O)C12CC3CC(CC(C3)C1)C2)c1ccncc1	inactive: -5.8%
O=C(O)c1cccc(S(=O)(=O)N(Cc2ccccc2)c2cccc(C(F)(F)F)c2)c1	inconclusive: -9.5%
Cc1[nH]c2ccccc2c1C(O)CN1CCC2(CC1)OCCO2 (stereo not drawn)	inconclusive: -24%
Cc1cc(C(=O)O)c(C)n1-c1ccccc1	inconclusive: -18.2%
CCc1ccccc1OCCCCN1CCCCC1	inconclusive: -12.5%
CCCc1ccc2oc(C(=O)N(C)CCn3ccnc3C)c(C)c2c1	inconclusive: -0.6%
Cc1oc2c(CN3CCCCC3C)c(O)ccc2c(=O)c1-c1ccc(Br)cc1 (stereo not drawn)	inconclusive: -20.7%
Fc1ccccc1OCCCCN1CCCCC1	inconclusive: -19.2%
C/C(=N\O)C(C)(C)Nc1cccc(F)c1	inconclusive: -51.2%
O=C(c1ccccc1)N1CCC(c2nc(-c3ccc(S(=O)(=O)N4CCOCC4)cc3)no2)CC1	inactive: -4.2%
CCN1C(=O)/C(=C2\C=Cc3ccccc3N2CC)SC1=S	inactive: -22.8%
CCN(CC(=O)NCc1ccc(Cl)cc1)CC(=O)NC1(C#N)CCCC1	inactive: 1.5%
O=c1c2ccccc2nc(/C=C/c2ccccn2)n1-c1ccccc1	inconclusive: 0.9%
CCOC(=O)Cn1c(=O)cnc2ccccc21	inactive: -29%
Cc1cc(=O)[nH]c(-c2ccc(C(F)(F)F)cc2)n1	inconclusive: -1.4%
O=C(Nc1ccc([N+](=O)[O-])cc1)OCCc1ccccn1	inconclusive: 0.6%
CCCn1c2c(c(=N)c3c1CCC3)CCC2	inconclusive: 10.9%
Cc1cc(C)nc(NC(=O)c2ccc(C)c(C)c2)n1	inconclusive: 11.7%

SMILES	inhibition
O=C(Nc1ccc2c(c1)OCCO2)c1cnc2n(c1=O)CCS2	inactive: -1.3%
CN(C)c1ccc(P(=O)(OCc2ccccc2)C(O)c2ccc(Br)cc2)cc1 (stereo not drawn)	inconclusive: -10.3%
COc1ccc(Cc2nc(C(=O)Nc3ccc(OC)cc3)cs2)cc1	inconclusive: -16.9%
C=C1[C@@H](O)[C@H](CC(C)C)N(Cc2ccccc2Br)S1(=O)=O	inactive: -3%
CCC1(O)CC(c2ccccc2)=NN1C(=O)c1ccccc1F (stereo not drawn)	inconclusive: 47.6%
CCCCS(=O)(=O)N1CCCC(C(=O)NCC2CCCO2)C1 (stereo not drawn)	inconclusive: 3.5%
Cc1nc(N)sc1C(=O)N1N=N1	inconclusive: 68.3%
Cc1ccc(O)c(Nc2ncnc3ccccc23)c1	inconclusive: 29%
CCN(CC)S(=O)(=O)c1ccc2c(c1)c(=O)c(C(=O)N1CCN(c3ccccc3)CC1)cn2C	inconclusive: 2.4%
CCOc1ccc(S(=O)(=O)Nc2ccc(C(=O)NCC(c3ccco3)N3CCCCC3)cc2)cc1 (stereo not drawn)	inactive: 2%
CC1(C)N(O)C2CCCCC2N1O (stereo not drawn)	inconclusive: -20.3%
CCCNC(=S)N1CCN(c2nc(C)nc3sc4c(c23)CCCC4)CC1	inactive: -4.8%
CCN1C(=O)CSC1=Nc1cccc(C(=O)O)c1	inconclusive: -3.1%
CC1(C)Cc2cccc(OCC(=O)NCc3ccc(F)cc3)c2O1	inconclusive: -10%
ONC(=Nc1cccc(C(F)(F)F)c1)c1cccnc1	inconclusive: 36%
CNc1nc(Cl)c(SC)c(NCc2cccc(OC)c2)n1	active: 48.1%
Cc1ccc(C2(C)NC(=O)N(CC(=O)NCc3cccc(Cl)c3)C2=O)cc1 (stereo not drawn)	inactive: -13.3%
O=C(COC(=O)c1ncc(Cl)c(Cl)c1Cl)NNC(=O)c1ccccc1	inconclusive: 9.1%
CCC(=O)Nc1ccc(NC(=O)c2cc3ccccc3o2)c(OC)c1	inconclusive: -28.3%
CN(CC(=O)N1CCc2ccccc21)S(=O)(=O)c1ccc(Br)s1	inconclusive: 7.5%
O=C(c1ccc(Br)cc1)N1CCCc2ccccc21	inconclusive: 12.5%
O=C(Oc1c(-c2ccccc2)c(=O)n2c3c(cccc13)CC2)c1ccco1	inconclusive: 42.3%
C=CCn1c(SCC(=O)Nc2cc(OC)c(NC(=O)c3ccco3)cc2OC)nnc1-c1ccncc1	inconclusive: 6.4%
C=CCn1c(SCC(=O)c2[nH]c(C)c(C(C)=O)c2C)nnc1-c1ccncc1	inconclusive: -5.7%

SMILES	inhibition
COc1ccc(C)cc1NC(=O)CNC(=O)c1sc2ccccc2c1Cl	inconclusive: 7.8%
CSCCC(NC(=O)c1ccccc1Cl)C(=O)NNC(=O)c1csc(N2CCOCC2)n1 (stereo not drawn)	inconclusive: -4.6%
Cc1nc(-c2nc(CC(=O)NNC(=O)c3ccc(Cl)cc3)cs2)cs1	inconclusive: -18.4%
Cc1ccc(S(=O)(=O)N2CCCC2C(=O)Nc2nc3ccccc3s2)cc1 (stereo not drawn)	inactive: -2.8%
COc1ccc(CCNC(=O)C2CCN(S(=O)(=O)N3CCOCC3)CC2)cc1OC	active: 36.5%
Cc1cc(NCCCn2ccnc2)n2c(nc3ccccc32)c1C#N	inactive: -8.2%
N#Cc1ccccc1S(=O)(=O)Nc1ccc2c(c1)OCCO2	inconclusive: -17.4%
COc1ccccc1NC(=O)NCCN1CCCCC1	inconclusive: -24.2%
CCc1noc(C)c1C(=O)NNC(=O)c1nn(CC)c(=O)c2ccccc12	inconclusive: -7.1%
Nc1nonc1-c1nc2ccccc2n1Cc1ccccc1	inconclusive: -2.2%
CC1(C)Cc2ccccc2C(COc2ccccc2)=N1	inconclusive: -0.6%
CC1(C)CC(=O)C(CC2=C(N)CC(C)(C)CC2=O)=C(N)C1	inconclusive: 19.1%
COc1ccc2[nH]c(C(=O)Nc3ncc(C)cc3Br)cc2c1	inconclusive: -62.1%
O=C(c1ccco1)N1CCN(S(=O)(=O)c2ccc(Cl)cc2)CC1	inconclusive: 34.5%
COC(=O)c1[nH]c2cc(OC)ccc2c1NC(=O)c1c(F)cccc1F	inconclusive: -37%
O=C(c1ccccc1)C(O)(Cc1ccccc1)c1ccccc1 (stereo not drawn)	inconclusive: -64.3%
CCOC(=O)CC1=C(C(=O)OCC)C2(C(=O)Nc3ccccc32)C(C#N)=C(N)O1 (stereo not drawn)	inactive: 1.4%
CCOc1ccc(C(=O)C(C)OC(=O)Cn2cnc3c2c(=O)n(C)c(=O)n3C)cc1 (stereo not drawn)	inconclusive: 0%
CCN(CC)CCn1c(-c2ccc(C)cc2)nc(=S)c2c1CC(C)(C)OC2	inconclusive: 29.6%
CNC(=O)/C(=C\c1ccco1)NC(=O)c1ccco1	inconclusive: 10.7%
O=C(COC(=O)CCC(=O)c1ccc(F)cc1)NCc1ccco1	inactive: 2.5%
CN(C)C(=S)Nc1ccc(Br)c(Cl)c1	inconclusive: 68.6%
COc1ccc(NC(=O)N2CCCC2C(=O)NCc2ccccc2Cl)cc1 (stereo not drawn)	inconclusive: 8.4%
O=C(O)c1cc(S(=O)(=O)NC(CO)C(O)c2ccc([N+](=O)[O-])cc2)ccc1Br (stereo not drawn)	inconclusive: 16.8%

Compounds from the list above with a thiophene ring, fused or not, in the order listed:
SMILES	inhibition
COC(=O)C(O)(c1ccc(NC(=O)c2cccs2)c(C)c1)C(F)(F)F (stereo not drawn)	inconclusive: -20%
CCCNC(=S)N1CCN(c2nc(C)nc3sc4c(c23)CCCC4)CC1	inactive: -4.8%
CN(CC(=O)N1CCc2ccccc21)S(=O)(=O)c1ccc(Br)s1	inconclusive: 7.5%
COc1ccc(C)cc1NC(=O)CNC(=O)c1sc2ccccc2c1Cl	inconclusive: 7.8%

Further results follow.

SMILES	inhibition
Cc1ccc(Cl)cc1NC(=O)C1CC(=O)N(C(C)C)C1 (stereo not drawn)	inconclusive: 3.4%
Cc1ccc(C)c(NC(=O)NCCN2CCCCC2)c1	inconclusive: 17.5%
O=C(COC(=O)C1CC1)Nc1nc(-c2ccc(F)c(F)c2)cs1	inconclusive: 9.9%
CC(C)C12CN(C(=O)c3ccccc3[N+](=O)[O-])CC(C(C)C)(CN(C(=O)c3ccccc3[N+](=O)[O-])C1)C2=O	inconclusive: 90.5%
Cc1cc2ccccc2n1CCNC(=O)C1CCCC1	inactive: -98.7%
O=C(O)C(Oc1ccc2cc(-c3ccc(Cl)cc3)c(=O)oc2c1)c1ccccc1 (stereo not drawn)	inconclusive: -12%
CN(C)CC[n+]1ccc(C(=O)c2ccccc2)cc1	inconclusive: 10.3%
Cc1cc(C)n(-c2nc3ccccc3n3nnnc23)n1	inconclusive: -17%
CCc1cc(C(=O)N2CCCC(C(=O)c3cccc(OC(C)C)c3)C2)n(C)n1 (stereo not drawn)	inactive: -11.1%
O=C(CN1C(=O)C(=O)c2ccccc21)c1ccc(Cl)cc1	inconclusive: 5.9%
O=[N+]([O-])c1ccc(Cl)c(-c2ccc(/C=N/n3cnnc3)o2)c1	inactive: -14.7%
CCCCN1C(=O)C2C3C=CC(C2C1=O)C1C2C(=O)N(CCCC)C(=O)C2C31 (stereo not drawn)	inactive: -5.7%
COc1ccc(CC(=O)OCc2cc3ccc(C)cc3[nH]c2=O)cc1	inconclusive: -19.8%
C=CCOc1ccc(C2=NOC(C(=O)Nc3ccc4c(c3)OCCO4)C2)cc1 (stereo not drawn)	inconclusive: 1.4%
CN(C)N1C(=O)/C(=C/c2ccco2)SC1=Nc1ccccc1	inconclusive: -15%
CC(C)c1nc2oc3c(NCCO)ncnc3c2c2c1COC(C)(C)C2	inconclusive: 4.9%
NC(=O)c1ccc(-n2nnnc2SCc2ccccc2)cc1	inconclusive: -27.9%
Cc1ccc(CONC(=O)c2ccccc2Cl)cc1	inconclusive: -4.6%
CC(C)C(NS(=O)(=O)c1ccccc1)C(=O)N1CCCC1 (stereo not drawn)	inconclusive: 30.4%
OCC1OC(n2cnc3c(N4CCCCC4)ncnc32)C(O)C1O (stereo not drawn)	inactive: -1.6%
Cc1nc2ccccn2c1C(=O)N/N=C/c1cc(C)n(-c2ccc(Cl)cc2)c1C	inactive: -9.5%
